These are yes or no findings as the source states them, for the method shown. Some binding calls cover weakened binding; strength is not graded here.

This note sets out measurements from patent publication US20250340653A1.

Test [1] has as its target Canine IL-31RA ECD-10His (canine). The test can be described thus: ELISA on coated canine IL-31RA (FIG. 7B). In general terms: In an ELISA, binding on a coated surface is turned into a signal by an enzyme label.
The target is the same in test [2]. The test can be described thus: ELISA on coated canine IL-31RA, 200 ng/well.

B1: c100H8VH7VL4 (antibody, V domains shown)
VH: EVQLVQSGAEVKKPGASVKVSCKASGYTFTDYNMDWVRQAPGAGLDWIGHINPNNGGILYNQKFKGKATLTADTSTSTAYMELSSLRAGDIAVYYCARWAPLVRQPYWYFDVWGQGTLVTVSS
VL: DIVMTQTPLSLSVSPGETASISCKASQDINSYLNWFRQKPGQSPQLLIYRADRLVDGVPDRFSGSGSGTDFTLRISTVEADDTGVYYCLQYDEFPLTFGAGTKVELKR
Take B1: the binding result in test [1] and in test [2] was “binds” each time.
